Reference: doi:10.1101/180760

Chains of the proteins cited; added tags and fusions are not shown.
UniProt P21333: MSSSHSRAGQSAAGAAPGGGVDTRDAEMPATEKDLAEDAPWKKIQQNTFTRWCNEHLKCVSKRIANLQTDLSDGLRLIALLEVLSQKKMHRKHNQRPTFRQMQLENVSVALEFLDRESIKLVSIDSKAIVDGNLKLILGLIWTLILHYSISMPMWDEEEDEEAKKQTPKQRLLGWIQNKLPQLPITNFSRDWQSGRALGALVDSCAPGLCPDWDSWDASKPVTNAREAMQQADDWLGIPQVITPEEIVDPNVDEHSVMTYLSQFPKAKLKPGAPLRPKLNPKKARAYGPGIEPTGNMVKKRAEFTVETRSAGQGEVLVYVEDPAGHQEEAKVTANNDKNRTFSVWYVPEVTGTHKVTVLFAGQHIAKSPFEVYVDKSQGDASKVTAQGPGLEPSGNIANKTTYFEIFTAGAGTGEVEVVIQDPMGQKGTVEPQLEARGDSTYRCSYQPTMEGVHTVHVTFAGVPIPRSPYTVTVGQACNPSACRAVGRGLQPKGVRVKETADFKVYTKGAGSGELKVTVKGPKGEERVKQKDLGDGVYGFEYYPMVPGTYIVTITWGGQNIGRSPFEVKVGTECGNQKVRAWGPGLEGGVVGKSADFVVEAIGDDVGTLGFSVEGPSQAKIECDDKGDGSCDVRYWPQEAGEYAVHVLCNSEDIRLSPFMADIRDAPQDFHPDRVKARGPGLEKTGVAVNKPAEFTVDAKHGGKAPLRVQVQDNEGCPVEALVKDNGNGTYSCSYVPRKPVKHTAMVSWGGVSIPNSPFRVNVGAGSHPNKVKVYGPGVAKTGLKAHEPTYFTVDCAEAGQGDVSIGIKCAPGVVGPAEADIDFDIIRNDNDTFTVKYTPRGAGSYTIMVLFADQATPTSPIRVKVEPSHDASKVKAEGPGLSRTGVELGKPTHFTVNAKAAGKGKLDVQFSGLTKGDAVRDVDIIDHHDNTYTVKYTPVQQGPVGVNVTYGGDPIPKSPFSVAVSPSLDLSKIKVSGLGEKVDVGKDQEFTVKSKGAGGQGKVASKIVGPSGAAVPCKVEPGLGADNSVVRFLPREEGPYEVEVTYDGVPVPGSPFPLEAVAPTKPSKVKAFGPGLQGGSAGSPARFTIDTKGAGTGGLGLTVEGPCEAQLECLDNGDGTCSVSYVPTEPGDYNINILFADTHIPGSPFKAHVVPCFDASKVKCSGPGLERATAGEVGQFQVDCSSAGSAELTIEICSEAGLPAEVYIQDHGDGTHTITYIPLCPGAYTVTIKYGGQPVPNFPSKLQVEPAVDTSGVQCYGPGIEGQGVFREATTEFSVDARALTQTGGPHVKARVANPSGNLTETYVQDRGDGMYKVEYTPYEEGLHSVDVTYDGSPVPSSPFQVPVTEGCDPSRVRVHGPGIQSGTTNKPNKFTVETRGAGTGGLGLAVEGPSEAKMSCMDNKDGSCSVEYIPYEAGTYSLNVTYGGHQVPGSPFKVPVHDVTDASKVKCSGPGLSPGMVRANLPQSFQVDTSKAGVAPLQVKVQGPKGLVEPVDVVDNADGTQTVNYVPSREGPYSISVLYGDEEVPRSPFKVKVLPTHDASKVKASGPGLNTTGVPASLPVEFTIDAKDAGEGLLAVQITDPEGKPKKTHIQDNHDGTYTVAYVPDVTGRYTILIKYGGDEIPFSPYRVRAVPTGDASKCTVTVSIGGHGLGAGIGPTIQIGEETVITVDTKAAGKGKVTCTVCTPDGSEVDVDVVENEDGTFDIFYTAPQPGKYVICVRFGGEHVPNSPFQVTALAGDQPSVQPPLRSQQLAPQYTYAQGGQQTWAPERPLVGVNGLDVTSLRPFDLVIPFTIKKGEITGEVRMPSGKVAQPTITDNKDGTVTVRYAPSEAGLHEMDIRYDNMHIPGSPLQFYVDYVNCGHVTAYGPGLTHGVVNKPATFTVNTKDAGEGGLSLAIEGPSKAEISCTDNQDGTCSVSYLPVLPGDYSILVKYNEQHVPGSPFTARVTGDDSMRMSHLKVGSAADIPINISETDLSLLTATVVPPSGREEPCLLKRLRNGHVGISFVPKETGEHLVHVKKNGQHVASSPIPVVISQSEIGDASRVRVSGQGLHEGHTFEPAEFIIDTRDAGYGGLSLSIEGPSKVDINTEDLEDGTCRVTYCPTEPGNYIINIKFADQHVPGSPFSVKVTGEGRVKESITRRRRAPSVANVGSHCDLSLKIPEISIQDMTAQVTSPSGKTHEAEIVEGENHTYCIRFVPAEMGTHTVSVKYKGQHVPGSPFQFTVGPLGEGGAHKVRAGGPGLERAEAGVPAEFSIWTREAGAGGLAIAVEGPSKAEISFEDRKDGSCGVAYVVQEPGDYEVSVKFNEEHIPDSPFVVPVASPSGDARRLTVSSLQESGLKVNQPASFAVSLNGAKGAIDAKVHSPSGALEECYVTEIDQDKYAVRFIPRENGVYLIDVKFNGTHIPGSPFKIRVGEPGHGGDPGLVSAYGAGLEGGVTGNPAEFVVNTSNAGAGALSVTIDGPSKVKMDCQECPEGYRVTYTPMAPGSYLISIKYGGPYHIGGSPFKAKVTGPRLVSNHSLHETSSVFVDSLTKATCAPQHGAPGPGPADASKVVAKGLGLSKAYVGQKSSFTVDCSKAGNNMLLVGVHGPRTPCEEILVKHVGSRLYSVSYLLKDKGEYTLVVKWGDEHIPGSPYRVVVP

Target: T1, GFP-tagged Phafin2 (UniProt Q9H8W4)
T1 sequence: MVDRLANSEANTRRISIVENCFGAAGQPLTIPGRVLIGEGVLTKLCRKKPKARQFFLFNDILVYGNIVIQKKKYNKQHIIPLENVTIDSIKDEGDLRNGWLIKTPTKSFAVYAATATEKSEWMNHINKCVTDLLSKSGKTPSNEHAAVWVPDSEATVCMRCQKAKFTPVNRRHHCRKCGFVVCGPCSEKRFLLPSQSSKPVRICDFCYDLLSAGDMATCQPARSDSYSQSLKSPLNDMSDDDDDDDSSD
Test: affinity purification with mass spectrometry

binding: binds
Substance: Filamin A (endogenous) (from UniProt P21333 1-2647)

These are yes or no findings as the source states them, for the method shown. In cells and extracts the contact can be indirect. A yes stands for co-enrichment or nearness to the bait. Other partners may have been found. Tags and fused reporters may be left off the sequences shown.
